Laboratory results from patent publication US20080274971A1.
These are yes or no findings as the source states them, for the method shown. Some results given as binding are weak or reduced against the parent protein; the word gives no strength. Tags and fused reporters may be left off the sequences shown.

Molecular target: recombinant Acrp30 (His-tagged, expressed from pTRC His B in E. coli) (mouse) (UniProt Q60994)
Assay: SDS-PAGE of purified recombinant protein (self-association)

B1: recombinant Acrp30 (His-tagged, expressed from pTRC His B in E. coli) (protein, mouse, UniProt Q60994 15-247, looked up, not shown: small tags and cut ends)
chain: SHAEDDVTTTEELAPALVPPPKGTCAGWMAGIPGHPGHNGTPGRDGRDGTPGEKGEKGDAGLLGPKGETGDVGMTGAEGPRGFPGTPGRKGEPGEAAYVYRSAFSVGLETRVTVPNVPIRFTKIFYNQQNHYDGSTGKFYCNIPGLYYFSYHITVYMKDVKVSLFKKDKAVLFTYDQYQEKNVDQASGSVLLHLEVGDQVWLQVYGDGDHNGLYADNVNDSTFTGFLLYHDTN
For B1, the binding was “binds”.
